Patent US11352308B2, “Compound and semiconductor material containing same” (DIC Corporation, priority 2016, dated 2022)

Assay: Mobility of BGBC transistor with semiconductor layer drop casted from p-xylene solution
Settings: 0.4 wt % p-xylene solution drop casted, drain −80 V, gate swept +40 V to −60 V
Experimental: A glass substrate was subjected to ultrasonic cleaning with a neutral detergent aqueous solution, distilled water, acetone and ethanol in this order (each 30 min×3 times), a platinum gate electrode (thickness: 30 nm) was pattern-deposited on the glass substrate by sputtering through a shadow metal mask, and a gate insulator (thickness: 1 μm) made of a dichloro-di-p-xylylene polymer (polyparaxylylene) was formed over the gate electrode by thermal CVD. Then, on the gate insulator, gold source and drain electrodes were deposited through a shadow metal mask by vacuum evaporation (2×10^−6 Torr) with a thickness of 20 nm, a channel length of 75 μm, and a channel width of 3000 μm). Next, this substrate was immersed in an ethanol solution of pentafluorobenzenethiol (concentration: 0.08 wt %) for 1 hour and then rinsed with ethanol. Finally, 0.05 μL of a p-xylene solution (0.4 wt %) of compound (101) was drop casted over the source and drain electrodes followed by drying at room temperature, to form a semiconductor layer.
Under a state where −80 V was applied to the drain electrode of the common source, the current (Id) flowing into the drain electrode was measured while the voltage (Vg) applied to the gate electrode was swept from +40 V to −60 V. The mobility of the transistor fabricated as described above was calculated in units of cm^2/Vs from the slope of √{square root over (I)}d—Vg using the equation (Eq. 101). [Equation 1] Id═(W/2L)Cμ(Vg−VT)^2 (Eq. 101)
In the equation, W represents the channel width, L represents the channel length, μ represents the mobility, C represents the capacitance per area of the gate insulator, and VT represents the threshold voltage.

Question: For `CCCCCCCCCc1ccc2c(c1)sc1c3ccc(-c4ccccc4)cc3sc21` [Compound (C105)], which Mobility is on record?
Answer: 0.3 cm^2/Vs

Question: Which Mobility does the source give for `CCCCCCc1ccc2c(c1)sc1c3ccc(-c4ccc(C)cc4)cc3sc21` [Compound (C107)] here?
Answer: 0.5 cm^2/Vs

Question: For `CCCCCCc1ccc2c(c1)sc1c3ccc(-c4ccccc4)cc3sc21` [Compound (C102)], which Mobility is on record?
Answer: 0.5 cm^2/Vs

Question: With `CCCCCCCCCCc1ccc2c(c1)sc1c3ccc(-c4ccccc4)cc3sc21` [Compound (C106)] as the compound, how does the Mobility read?
Answer: 0.1 cm^2/Vs

Question: With `CCCCCCc1ccc2cc3cc(-c4ccc(C)cc4)ccc3cc2c1` [Compound (106)] as the compound, how does the Mobility read?
Answer: 2.3 cm^2/Vs

Question: With `c1ccc(-c2ccc3cc4cc(-c5ccccc5)ccc4cc3c2)cc1` [Compound (C101), reference compound] as the compound, how does the Mobility read?
Answer: Semiconductor layer cannot be formed due

Question: With `CCCCCCCCCc1ccc2cc3cc(-c4ccccc4)ccc3cc2c1` [Compound (104)] as the compound, how does the Mobility read?
Answer: 1.7 cm^2/Vs

Question: With `CCCCCCCCc1ccc2c(c1)sc1c3ccc(-c4ccccc4)cc3sc21` [Compound (C104)] as the compound, how does the Mobility read?
Answer: 0.5 cm^2/Vs

Question: For `CCCCCCCCCCc1ccc2c(c1)sc1c3ccc(-c4ccc(C)cc4)cc3sc21` [Compound (C108)], which Mobility is on record?
Answer: 0.3 cm^2/Vs

Question: With `CCCCCCCCCCc1ccc2cc3cc(-c4ccc(C)cc4)ccc3cc2c1` [Compound (107)] as the compound, how does the Mobility read?
Answer: 1.4 cm^2/Vs

Question: Which Mobility does the source give for `CCCCCCCCc1ccc2cc3cc(-c4ccccc4)ccc3cc2c1` [Compound (103)] here?
Answer: 3.3 cm^2/Vs

Question: With `CCCCCCCCCCc1ccc2cc3cc(-c4ccccc4)ccc3cc2c1` [Compound (105)] as the compound, how does the Mobility read?
Answer: 2.1 cm^2/Vs

Question: With `CCCCCCc1ccc2cc3cc(-c4ccccc4)ccc3cc2c1` [Compound (101)] as the compound, how does the Mobility read?
Answer: 1.2 cm^2/Vs

Question: Which Mobility does the source give for `CCCCCCCc1ccc2c(c1)sc1c3ccc(-c4ccccc4)cc3sc21` [Compound (C103)] here?
Answer: 0.6 cm^2/Vs

Question: Which Mobility does the source give for `CCCCCCCc1ccc2cc3cc(-c4ccccc4)ccc3cc2c1` [Compound (102)] here?
Answer: 2.4 cm^2/Vs
